Data taken from the supplement of paper PMC10849652.
The other results are listed elsewhere or left out.

Amino acid sequences for entries named in this document (tags omitted). A change or cut given only in a name is not applied to a line headed by its entry.
UniProt P11388: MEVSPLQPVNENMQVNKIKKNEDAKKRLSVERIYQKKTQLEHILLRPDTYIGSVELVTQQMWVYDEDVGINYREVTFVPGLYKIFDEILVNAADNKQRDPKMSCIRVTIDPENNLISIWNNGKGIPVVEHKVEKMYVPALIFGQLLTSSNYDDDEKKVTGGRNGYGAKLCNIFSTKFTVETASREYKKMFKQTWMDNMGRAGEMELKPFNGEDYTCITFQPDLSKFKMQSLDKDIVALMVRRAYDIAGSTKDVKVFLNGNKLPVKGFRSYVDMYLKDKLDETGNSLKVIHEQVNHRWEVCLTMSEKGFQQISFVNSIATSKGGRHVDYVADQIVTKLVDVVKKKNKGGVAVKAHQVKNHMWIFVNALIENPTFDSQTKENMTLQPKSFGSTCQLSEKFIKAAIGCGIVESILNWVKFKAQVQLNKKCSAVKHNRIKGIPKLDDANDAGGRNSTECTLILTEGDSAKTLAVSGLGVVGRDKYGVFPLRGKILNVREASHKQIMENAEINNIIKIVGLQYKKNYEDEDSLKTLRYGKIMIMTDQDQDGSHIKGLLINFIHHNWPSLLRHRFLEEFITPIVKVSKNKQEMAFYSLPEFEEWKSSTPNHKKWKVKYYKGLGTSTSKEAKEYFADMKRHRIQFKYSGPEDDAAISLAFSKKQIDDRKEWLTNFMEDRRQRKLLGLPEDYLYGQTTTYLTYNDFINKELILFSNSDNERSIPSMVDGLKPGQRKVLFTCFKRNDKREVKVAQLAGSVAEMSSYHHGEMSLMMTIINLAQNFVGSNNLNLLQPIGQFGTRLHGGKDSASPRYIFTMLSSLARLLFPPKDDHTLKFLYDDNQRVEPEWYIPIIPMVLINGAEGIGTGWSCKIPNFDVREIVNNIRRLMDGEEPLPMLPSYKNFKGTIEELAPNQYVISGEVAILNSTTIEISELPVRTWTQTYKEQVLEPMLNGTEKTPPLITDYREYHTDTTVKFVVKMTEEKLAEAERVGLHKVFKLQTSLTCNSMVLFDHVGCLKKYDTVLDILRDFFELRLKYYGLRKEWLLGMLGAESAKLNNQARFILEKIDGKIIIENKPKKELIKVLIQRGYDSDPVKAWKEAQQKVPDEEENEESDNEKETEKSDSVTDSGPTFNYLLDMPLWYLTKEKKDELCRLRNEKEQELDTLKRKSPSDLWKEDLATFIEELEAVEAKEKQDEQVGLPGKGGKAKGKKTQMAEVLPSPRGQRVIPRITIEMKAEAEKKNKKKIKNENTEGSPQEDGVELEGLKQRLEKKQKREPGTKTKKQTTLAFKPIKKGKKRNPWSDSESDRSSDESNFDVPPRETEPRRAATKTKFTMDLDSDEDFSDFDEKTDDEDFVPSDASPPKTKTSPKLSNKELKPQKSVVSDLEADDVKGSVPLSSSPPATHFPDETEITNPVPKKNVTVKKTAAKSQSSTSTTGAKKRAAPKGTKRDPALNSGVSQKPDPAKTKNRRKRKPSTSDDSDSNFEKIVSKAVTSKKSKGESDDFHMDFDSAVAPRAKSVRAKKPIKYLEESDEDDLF
UniProt Q71RG4: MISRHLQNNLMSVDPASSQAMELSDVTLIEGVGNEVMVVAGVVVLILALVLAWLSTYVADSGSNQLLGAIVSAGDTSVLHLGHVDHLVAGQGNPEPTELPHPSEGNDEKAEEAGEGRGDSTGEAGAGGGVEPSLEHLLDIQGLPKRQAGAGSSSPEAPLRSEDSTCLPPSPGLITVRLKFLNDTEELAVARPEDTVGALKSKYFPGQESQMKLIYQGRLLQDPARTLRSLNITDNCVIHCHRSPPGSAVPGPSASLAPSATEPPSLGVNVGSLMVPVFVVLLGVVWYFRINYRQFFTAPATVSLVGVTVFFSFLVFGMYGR
UniProt P12270, whole entry, looked up: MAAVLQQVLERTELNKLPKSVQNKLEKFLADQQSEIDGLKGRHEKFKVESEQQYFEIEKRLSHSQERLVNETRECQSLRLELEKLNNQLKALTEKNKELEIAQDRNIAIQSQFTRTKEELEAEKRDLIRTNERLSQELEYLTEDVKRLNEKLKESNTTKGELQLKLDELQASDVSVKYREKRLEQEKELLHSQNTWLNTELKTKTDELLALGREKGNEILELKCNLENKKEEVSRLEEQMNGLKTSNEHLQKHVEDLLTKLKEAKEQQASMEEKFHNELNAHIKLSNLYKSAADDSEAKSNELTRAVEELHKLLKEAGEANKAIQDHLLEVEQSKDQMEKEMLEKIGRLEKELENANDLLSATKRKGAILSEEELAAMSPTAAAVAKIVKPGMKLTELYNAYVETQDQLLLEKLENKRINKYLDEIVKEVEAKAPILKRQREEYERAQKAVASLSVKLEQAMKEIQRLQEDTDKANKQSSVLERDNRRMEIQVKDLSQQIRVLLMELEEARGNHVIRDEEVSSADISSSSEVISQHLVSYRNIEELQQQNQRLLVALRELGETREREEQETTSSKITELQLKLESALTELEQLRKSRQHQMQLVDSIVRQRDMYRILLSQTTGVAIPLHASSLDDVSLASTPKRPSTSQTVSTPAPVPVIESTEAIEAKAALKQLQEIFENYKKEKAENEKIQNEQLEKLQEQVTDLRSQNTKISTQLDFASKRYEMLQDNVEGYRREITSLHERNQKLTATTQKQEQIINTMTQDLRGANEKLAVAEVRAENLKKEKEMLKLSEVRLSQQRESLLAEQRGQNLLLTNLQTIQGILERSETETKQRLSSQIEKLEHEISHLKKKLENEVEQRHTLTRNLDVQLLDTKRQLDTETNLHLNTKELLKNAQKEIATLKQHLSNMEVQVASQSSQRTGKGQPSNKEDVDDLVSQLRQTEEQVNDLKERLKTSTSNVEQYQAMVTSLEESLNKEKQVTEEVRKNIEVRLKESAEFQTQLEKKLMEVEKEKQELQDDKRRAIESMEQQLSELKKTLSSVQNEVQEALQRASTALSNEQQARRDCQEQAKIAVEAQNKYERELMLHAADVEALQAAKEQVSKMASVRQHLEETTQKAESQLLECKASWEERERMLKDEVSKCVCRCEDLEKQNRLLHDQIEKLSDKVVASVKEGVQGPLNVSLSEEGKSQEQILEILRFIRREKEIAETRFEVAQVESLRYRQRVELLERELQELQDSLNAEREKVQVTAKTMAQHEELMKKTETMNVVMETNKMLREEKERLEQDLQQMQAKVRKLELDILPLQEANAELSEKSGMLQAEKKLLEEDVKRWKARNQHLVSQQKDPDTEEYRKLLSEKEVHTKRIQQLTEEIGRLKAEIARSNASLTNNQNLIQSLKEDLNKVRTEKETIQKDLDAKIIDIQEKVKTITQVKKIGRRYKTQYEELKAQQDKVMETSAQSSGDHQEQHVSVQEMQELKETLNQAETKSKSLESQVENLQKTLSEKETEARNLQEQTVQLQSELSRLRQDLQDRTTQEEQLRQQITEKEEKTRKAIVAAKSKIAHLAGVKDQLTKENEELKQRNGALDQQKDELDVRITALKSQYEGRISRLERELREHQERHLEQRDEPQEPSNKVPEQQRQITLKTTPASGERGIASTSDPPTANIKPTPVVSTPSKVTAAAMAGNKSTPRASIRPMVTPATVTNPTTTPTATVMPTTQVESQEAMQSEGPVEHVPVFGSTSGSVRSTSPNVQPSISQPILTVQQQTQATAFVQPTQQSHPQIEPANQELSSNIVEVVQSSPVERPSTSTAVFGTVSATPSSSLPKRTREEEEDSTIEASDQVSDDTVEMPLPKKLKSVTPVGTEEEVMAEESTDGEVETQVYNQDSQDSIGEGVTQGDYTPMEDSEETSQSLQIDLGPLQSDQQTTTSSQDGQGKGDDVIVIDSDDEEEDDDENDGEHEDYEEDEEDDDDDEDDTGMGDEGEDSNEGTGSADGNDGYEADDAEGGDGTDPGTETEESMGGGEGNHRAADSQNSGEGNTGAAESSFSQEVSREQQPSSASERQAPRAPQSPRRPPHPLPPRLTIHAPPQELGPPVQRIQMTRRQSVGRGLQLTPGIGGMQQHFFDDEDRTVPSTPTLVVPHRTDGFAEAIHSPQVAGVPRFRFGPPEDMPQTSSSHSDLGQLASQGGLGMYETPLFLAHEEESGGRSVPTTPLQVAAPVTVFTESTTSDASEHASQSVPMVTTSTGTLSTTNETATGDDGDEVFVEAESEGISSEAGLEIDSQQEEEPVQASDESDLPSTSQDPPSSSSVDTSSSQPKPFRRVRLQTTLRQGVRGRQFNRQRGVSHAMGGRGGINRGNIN
UniProt Q6ZXV5: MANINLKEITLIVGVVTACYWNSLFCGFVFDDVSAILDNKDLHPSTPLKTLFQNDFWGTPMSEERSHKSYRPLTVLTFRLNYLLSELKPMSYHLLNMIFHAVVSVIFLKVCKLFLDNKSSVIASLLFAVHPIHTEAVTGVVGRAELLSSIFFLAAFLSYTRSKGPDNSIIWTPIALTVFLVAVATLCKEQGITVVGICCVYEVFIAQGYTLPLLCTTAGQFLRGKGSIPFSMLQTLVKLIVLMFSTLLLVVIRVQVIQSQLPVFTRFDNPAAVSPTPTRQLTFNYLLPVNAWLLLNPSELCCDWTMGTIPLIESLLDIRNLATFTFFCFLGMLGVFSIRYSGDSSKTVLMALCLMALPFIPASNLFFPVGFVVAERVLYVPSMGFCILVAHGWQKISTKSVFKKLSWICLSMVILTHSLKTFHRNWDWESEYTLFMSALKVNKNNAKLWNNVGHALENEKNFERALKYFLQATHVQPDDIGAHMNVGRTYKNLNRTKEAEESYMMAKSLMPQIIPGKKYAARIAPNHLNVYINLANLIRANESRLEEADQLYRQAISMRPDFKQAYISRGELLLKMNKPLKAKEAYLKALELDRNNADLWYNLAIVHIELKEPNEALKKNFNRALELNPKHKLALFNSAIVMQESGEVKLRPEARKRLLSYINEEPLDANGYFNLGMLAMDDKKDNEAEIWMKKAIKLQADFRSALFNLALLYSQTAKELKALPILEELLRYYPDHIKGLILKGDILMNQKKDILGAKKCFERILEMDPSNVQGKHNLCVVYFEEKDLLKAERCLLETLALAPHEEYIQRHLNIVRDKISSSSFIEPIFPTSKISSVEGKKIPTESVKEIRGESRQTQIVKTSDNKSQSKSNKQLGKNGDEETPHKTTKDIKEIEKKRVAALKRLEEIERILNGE
UniProt Q969M1: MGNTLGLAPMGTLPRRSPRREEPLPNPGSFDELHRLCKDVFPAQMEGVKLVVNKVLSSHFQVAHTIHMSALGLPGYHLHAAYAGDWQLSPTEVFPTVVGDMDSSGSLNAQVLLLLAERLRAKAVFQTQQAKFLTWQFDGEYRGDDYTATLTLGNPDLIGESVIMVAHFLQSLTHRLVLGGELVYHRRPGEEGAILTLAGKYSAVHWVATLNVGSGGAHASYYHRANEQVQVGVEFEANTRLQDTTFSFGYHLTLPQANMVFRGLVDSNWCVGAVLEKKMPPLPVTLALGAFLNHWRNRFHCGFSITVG
UniProt Q15785: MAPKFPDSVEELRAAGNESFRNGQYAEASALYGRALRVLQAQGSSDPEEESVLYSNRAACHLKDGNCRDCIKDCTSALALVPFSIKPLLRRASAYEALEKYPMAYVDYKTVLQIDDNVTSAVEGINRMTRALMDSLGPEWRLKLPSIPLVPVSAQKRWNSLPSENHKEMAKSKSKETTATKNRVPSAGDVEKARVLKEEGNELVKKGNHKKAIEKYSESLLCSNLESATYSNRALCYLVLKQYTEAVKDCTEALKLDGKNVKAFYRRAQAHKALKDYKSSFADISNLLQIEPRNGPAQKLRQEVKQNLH
UniProt Q5SWH9: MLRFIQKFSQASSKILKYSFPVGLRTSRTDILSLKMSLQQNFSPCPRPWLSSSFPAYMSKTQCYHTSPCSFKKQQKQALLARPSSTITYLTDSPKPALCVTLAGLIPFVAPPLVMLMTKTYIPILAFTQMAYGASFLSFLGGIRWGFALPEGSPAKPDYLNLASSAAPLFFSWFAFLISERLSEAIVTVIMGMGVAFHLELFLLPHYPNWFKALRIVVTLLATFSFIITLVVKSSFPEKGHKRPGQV
UniProt Q9NYL9: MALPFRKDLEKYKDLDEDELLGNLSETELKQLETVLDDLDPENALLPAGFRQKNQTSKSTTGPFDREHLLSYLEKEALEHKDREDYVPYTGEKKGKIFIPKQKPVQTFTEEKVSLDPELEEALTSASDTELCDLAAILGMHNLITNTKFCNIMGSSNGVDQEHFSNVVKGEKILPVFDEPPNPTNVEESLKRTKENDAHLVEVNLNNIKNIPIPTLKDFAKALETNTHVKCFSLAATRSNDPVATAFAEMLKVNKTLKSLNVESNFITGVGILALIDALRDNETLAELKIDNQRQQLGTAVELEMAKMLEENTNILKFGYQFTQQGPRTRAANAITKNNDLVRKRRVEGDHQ

Legend:
Experiment in all cases: log2 fold change, soluble protein after heating vs DMSO (PISA); higher = thermal stabilisation; K562 lysate, 10 uM; active = over 0.2 and 3.5 SD of the protein, either way, in both replicates (recomputed)
erlotinib = compound: C#Cc1cccc(Nc2ncnc3cc(OCCOC)c(OCCOC)cc23)c1 [erlotinib]
How it was run: (§1)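 K562 pellets were dounce-homogenised in PBS pH 7.4 containing 1 mM MgCl2, and the crude extract, at 1 mg/mL protein, was exposed to 10 μM compound for 30 min. Aliquots were heated for 3 min across 48°C-58°C, pooled, brought to 0.5% NP-40 at 4°C and spun at 21,000xg for 90 min, with the supernatant taken as soluble protein. TMTpro 16plex LC-MS/MS with equalised channel sums quantified that protein. Values are log-two fold changes in thermal stability relative to solvent controls, taken from duplicates.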

[1] = compound: C/C(=N\NC(=O)C1=CC(=CC=C1)S(=O)(=O)N2CCOCC2)/C3=C(C=CC(=C3)Cl)O
How it was run: as §1

[2] = compound: C1=CC(=CC=C1C2=NC3=C(N2)C=C(C=C3)C(=O)N)OC4=CC=C(C=C4)Cl
How it was run: as §1

[3] = compound: C1=CC2=C(C=CC(=C2)/C=C\3/C(=O)NC(=NCC4=CC=CS4)S3)N=C1
How it was run: as §1

[4] = compound: C1=CC2=NC=CN=C2C=C1/C=C/3\C(=O)NC(=O)S3
How it was run: as §1

[5] = compound: C1=CC=C(C=C1)C2=NC(=C(N2)C3=CC=NC=C3)C4=CC(=C(C=C4)Cl)O
How it was run: as §1

[6] = compound: C1=CC=C2C(=C1)C3=NNC4=CC=CC(=C43)C2=O
How it was run: as §1

[7] = compound: C1CCN(C1)C(=O)NC2=CC=CC(=C2)NC3=NC=C(C(=N3)NCCC4=CN=CN4)Br
How it was run: as §1

[8] = compound: C1CN(CCC1(CC2=CC=C(C=C2)Cl)N)C3=NC=NC4=C3C=CN4
How it was run: as §1

IRAK-1-4 Inhibitor I = compound: C1COCCN1CCN2C3=CC=CC=C3N=C2NC(=O)C4=CC(=CC=C4)[N+](=O)[O-] [IRAK-1-4 Inhibitor I]
How it was run: as §1

ibrutinib = compound: C=CC(=O)N1CCC[C@@H](n2nc(-c3ccc(Oc4ccccc4)cc3)c3c(N)ncnc32)C1 [ibrutinib]
How it was run: as §1

[9] = compound: CC(=O)c1cnc2ccc(-c3cc(Cl)c(O)c(Cl)c3)nc2c1N[C@H]1CC[C@H](CN(C)C)CC1
How it was run: as §1

ralimetinib = compound: CC(C)(C)Cn1c(N)nc2ccc(-c3[nH]c(C(C)(C)C)nc3-c3ccc(F)cc3)nc21 [ralimetinib]
How it was run: as §1

[10] = compound: CC(C)(O)CC(=O)NCCn1ccc2ncnc(Nc3ccc(Oc4cccc(C(F)(F)F)c4)c(Cl)c3)c21
How it was run: as §1

[11] = compound: CC(C)C1=C2N=C(C=C(N2N=C1)NCC3=CC=CC=C3)NCCCCCCN
How it was run: as §1

[12] = compound: CC1=C(C(CC(=O)N1)C2=CC=C(C=C2)C(F)(F)F)C(=O)NC3=C(C=C4C(=C3)C=NN4)F
How it was run: as §1

[13] = compound: CC1=C(C2=C(C=C1)C(=O)C3=CC=CC=C3N2CCCN)C
How it was run: as §1

[14] = compound: CC1=C(C=C(C=C1)NC(=O)C2=CC(=CC=C2)C(C)(C)C#N)NC3=CC4=C(C=C3)N=CN(C4=O)C
How it was run: as §1

[15] = compound: CC1=C(C=C(C=C1)NC(=O)C2=CC(=CC=C2)N(C)C)NC(=O)C3=CC=C(C=C3)O
How it was run: as §1

[16] = compound: CC1=CC=C(C=C1)SC2=C3C=C(SC3=CN=C2)C(=O)N
How it was run: as §1

Measured: log2 fold change

TOE1 (UniProt Q96GM8)
inactive: erlotinib -0.035 | [1] -0.064 | [2] 0.006 | [3] 0.036 | [4] 0.054 | [5] -0.021 | [6] -0.024 | [7] 0 | [8] -0.035 | IRAK-1-4 Inhibitor I -0.021 | ibrutinib 0.011 | [9] -0.001 | ralimetinib 0.007 | [10] 0.003 | [11] 0.008 | [12] -0.061 | [13] -0.023 | [14] -0.02 | [15] 0.014 | [16] 0.011

TMEM63B (UniProt Q5T3F8)
inactive: erlotinib 0.004 | [1] 0.049 | [2] 0.002 | [3] 0.047 | [4] 0.027 | [5] 0.013 | [6] -0.051 | [7] -0.011 | [8] 0.002 | IRAK-1-4 Inhibitor I -0.019 | ibrutinib 0.002 | [9] 0.01 | ralimetinib 0.013 | [10] -0.034 | [11] -0.023 | [12] 0.033 | [13] 0.008 | [14] 0.005 | [15] -0.016 | [16] -0.008

TP53BP2 isoform 3 (UniProt Q13625)
inactive: erlotinib 0.014 | [1] 0.021 | [2] 0.019 | [3] 0.024 | [4] -0.101 | [5] 0.005 | [6] -0.022 | [7] -0.039 | [8] 0.039 | IRAK-1-4 Inhibitor I 0.02 | ibrutinib 0.028 | [9] -0.045 | ralimetinib 0.037 | [10] 0.079 | [11] -0.019 | [12] 0.015 | [13] 0.043 | [14] 0.006 | [15] 0.018 | [16] 0.027

TOP1 (UniProt P11387)
inactive: erlotinib -0.032 | [1] -0.019 | [2] -0.048 | [3] 0.016 | [4] 0.014 | [5] 0.014 | [6] 0.061 | [7] 0.025 | [8] 0.014 | IRAK-1-4 Inhibitor I -0.023 | ibrutinib -0.002 | [9] 0.004 | ralimetinib 0.04 | [10] 0.019 | [11] -0.023 | [12] -0.003 | [13] 0.028 | [14] -0.01 | [15] 0.051 | [16] 0.032

TOX4 (UniProt O94842)
inactive: erlotinib -0.016 | [1] -0.025 | [2] 0.049 | [3] 0.037 | [4] -0.052 | [5] 0.04 | [6] -0.003 | [7] -0.014 | [8] 0.053 | IRAK-1-4 Inhibitor I -0.025 | ibrutinib -0.009 | [9] 0.054 | ralimetinib 0.009 | [10] -0.034 | [11] -0.008 | [12] 0.024 | [13] -0.002 | [14] 0.033 | [15] 0.023 | [16] 0.006

TOP2A isoform 4 (UniProt P11388)
inactive: erlotinib -0.004 | [1] -0.049 | [2] 0.004 | [3] 0.043 | [4] -0.008 | [5] 0.007 | [6] -0.011 | [7] 0.003 | [8] -0.018 | IRAK-1-4 Inhibitor I -0.033 | ibrutinib -0.018 | [9] -0.01 | ralimetinib 0.047 | [10] -0.002 | [11] -0.034 | [12] -0.015 | [13] -0.046 | [14] 0.007 | [15] 0.02 | [16] 0.008

TMUB2 (UniProt Q71RG4)
inactive: erlotinib 0.051 | [1] 0.251 | [2] 0.004 | [3] -0.057 | [4] -0.166 | [5] -0.036 | [6] -0.064 | [7] -0.036 | [8] 0.008 | IRAK-1-4 Inhibitor I 0.06 | ibrutinib 0.053 | [9] 0.094 | ralimetinib -0.019 | [10] -0.044 | [11] 0.045 | [12] 0.018 | [13] -0.049 | [14] 0.033 | [15] 0.05 | [16] 0.058

TMEM30A (UniProt Q9NV96)
inactive: erlotinib -0.007 | [1] 0.015 | [2] -0.024 | [3] -0.032 | [4] -0.014 | [5] 0.069 | [6] -0.005 | [7] -0.003 | [8] 0.039 | IRAK-1-4 Inhibitor I -0.013 | ibrutinib 0.049 | [9] -0.01 | ralimetinib -0.007 | [10] -0.014 | [11] -0.043 | [12] 0.011 | [13] -0.105 | [14] -0.002 | [15] 0.023 | [16] -0.024

TMOD2 (UniProt Q9NZR1)
inactive: erlotinib -0.057 | [1] 0.042 | [2] 0 | [3] -0.007 | [4] -0.024 | [5] 0.004 | [6] -0.058 | [7] -0.026 | [8] -0.018 | IRAK-1-4 Inhibitor I 0.054 | ibrutinib -0.049 | [9] -0.027 | ralimetinib 0.029 | [10] -0.131 | [11] 0.005 | [12] 0.021 | [13] 0.029 | [14] 0.081 | [15] -0.009 | [16] 0.02

TPR (UniProt P12270)
inactive: erlotinib -0.027 | [1] 0.007 | [2] 0.025 | [3] -0.005 | [4] -0.01 | [5] 0.003 | [6] 0.014 | [7] 0.006 | [8] 0.003 | IRAK-1-4 Inhibitor I -0.011 | ibrutinib 0.015 | [9] -0.006 | ralimetinib -0.007 | [10] -0.011 | [11] -0.012 | [12] -0.008 | [13] -0.009 | [14] -0.008 | [15] -0.014 | [16] -0.014

TMTC3 (UniProt Q6ZXV5)
inactive: erlotinib -0.018 | [1] 0.062 | [2] -0.123 | [3] -0.069 | [4] 0.049 | [5] -0.031 | [6] -0.013 | [7] 0.042 | [8] 0.003 | IRAK-1-4 Inhibitor I 0.055 | ibrutinib 0.014 | [9] 0.015 | ralimetinib -0.022 | [10] 0.021 | [11] -0.01 | [12] 0.011 | [13] 0.003 | [14] 0.019 | [15] -0.004 | [16] 0.015

TOMM40L (UniProt Q969M1)
inactive: erlotinib 0.013 | [1] 0.027 | [2] 0.047 | [3] -0.035 | [4] 0.068 | [5] -0.057 | [6] -0.058 | [7] -0.057 | [8] -0.008 | IRAK-1-4 Inhibitor I -0.033 | ibrutinib 0.099 | [9] -0.005 | ralimetinib 0.055 | [10] -0.09 | [11] -0.012 | [12] 0.019 | [13] -0.031 | [14] 0.069 | [15] -0.098 | [16] -0.004

TOMM34 (UniProt Q15785)
inactive: erlotinib -0.02 | [1] -0.049 | [2] 0.009 | [3] -0.001 | [4] 0.006 | [5] -0.009 | [6] -0.023 | [7] 0.024 | [8] -0.018 | IRAK-1-4 Inhibitor I 0.017 | ibrutinib 0.022 | [9] 0.01 | ralimetinib 0.033 | [10] -0.01 | [11] -0.015 | [12] -0.02 | [13] -0.041 | [14] 0.013 | [15] 0.019 | [16] 0.004

Quoted at random: two entries already listed
TMOD2 (UniProt Q9NZR1)
inactive: erlotinib -0.057 | [1] 0.042 | [2] 0 | [3] -0.007 | [4] -0.024 | [5] 0.004 | [6] -0.058 | [7] -0.026 | [8] -0.018 | IRAK-1-4 Inhibitor I 0.054 | ibrutinib -0.049 | [9] -0.027 | ralimetinib 0.029 | [10] -0.131 | [11] 0.005 | [12] 0.021 | [13] 0.029 | [14] 0.081 | [15] -0.009 | [16] 0.02

TOMM40L (UniProt Q969M1)
inactive: erlotinib 0.013 | [1] 0.027 | [2] 0.047 | [3] -0.035 | [4] 0.068 | [5] -0.057 | [6] -0.058 | [7] -0.057 | [8] -0.008 | IRAK-1-4 Inhibitor I -0.033 | ibrutinib 0.099 | [9] -0.005 | ralimetinib 0.055 | [10] -0.09 | [11] -0.012 | [12] 0.019 | [13] -0.031 | [14] 0.069 | [15] -0.098 | [16] -0.004

Next part:

TMEM69 (UniProt Q5SWH9)
inactive: erlotinib -0.023 | [1] -0.241 | [2] 0.047 | [3] 0.016 | [4] 0.046 | [5] -0.128 | [6] -0.002 | [7] -0.107 | [8] 0.002 | IRAK-1-4 Inhibitor I 0.086 | ibrutinib -0.024 | [9] 0.03 | ralimetinib 0.002 | [10] 0.011 | [11] -0.121 | [12] 0.025 | [13] -0.038 | [14] -0.015 | [15] 0.015 | [16] -0.073

TMOD3 (UniProt Q9NYL9)
inactive: erlotinib -0.007 | [1] -0.027 | [2] 0.04 | [3] 0.016 | [4] 0.033 | [5] 0 | [6] -0.021 | [7] -0.001 | [8] -0.033 | IRAK-1-4 Inhibitor I 0.007 | ibrutinib -0.027 | [9] -0.004 | ralimetinib -0.014 | [10] -0.045 | [11] -0.011 | [12] -0.017 | [13] 0.005 | [14] 0.026 | [15] 0.011 | [16] -0.017

TP53I3 (UniProt Q53FA7)
inactive: erlotinib -0.069 | [1] 0.009 | [2] -0.016 | [3] -0.003 | [4] 0.018 | [5] 0.004 | [6] 0.039 | [7] 0.053 | [8] 0.039 | IRAK-1-4 Inhibitor I -0.019 | ibrutinib 0.003 | [9] -0.017 | ralimetinib 0.043 | [10] 0.038 | [11] 0.009 | [12] 0.013 | [13] -0.018 | [14] -0.035 | [15] -0.034 | [16] -0.014
